According to US20200276130A1:
No constants are given. Whether binding was seen depends on the method and setting. In cells and extracts the contact can be indirect. Some entries that bind do so weakly or less than the wild type.

Amino acid sequences for entries named in this document (tags omitted). A change or cut given only in a name is not applied to a line headed by its entry. Chains listed by the source or under a name are the forms on record and can include a tag or linker.
UniProt Q86X55: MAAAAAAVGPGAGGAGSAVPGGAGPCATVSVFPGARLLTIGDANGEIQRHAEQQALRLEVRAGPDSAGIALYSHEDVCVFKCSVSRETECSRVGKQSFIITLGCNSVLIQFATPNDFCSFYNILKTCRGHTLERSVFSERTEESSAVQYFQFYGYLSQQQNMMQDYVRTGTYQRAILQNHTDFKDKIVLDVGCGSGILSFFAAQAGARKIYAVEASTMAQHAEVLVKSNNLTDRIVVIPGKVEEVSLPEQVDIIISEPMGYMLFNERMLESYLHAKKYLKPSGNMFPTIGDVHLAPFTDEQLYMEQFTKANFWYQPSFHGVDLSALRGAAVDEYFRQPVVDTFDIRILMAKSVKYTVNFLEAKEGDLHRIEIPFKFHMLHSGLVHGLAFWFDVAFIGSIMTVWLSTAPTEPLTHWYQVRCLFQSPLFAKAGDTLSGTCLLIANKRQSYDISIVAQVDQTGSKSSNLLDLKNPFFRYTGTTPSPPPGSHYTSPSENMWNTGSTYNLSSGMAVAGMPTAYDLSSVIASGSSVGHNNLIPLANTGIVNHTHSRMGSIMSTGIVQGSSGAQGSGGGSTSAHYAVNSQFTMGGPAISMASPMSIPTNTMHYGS
UniProt P11940: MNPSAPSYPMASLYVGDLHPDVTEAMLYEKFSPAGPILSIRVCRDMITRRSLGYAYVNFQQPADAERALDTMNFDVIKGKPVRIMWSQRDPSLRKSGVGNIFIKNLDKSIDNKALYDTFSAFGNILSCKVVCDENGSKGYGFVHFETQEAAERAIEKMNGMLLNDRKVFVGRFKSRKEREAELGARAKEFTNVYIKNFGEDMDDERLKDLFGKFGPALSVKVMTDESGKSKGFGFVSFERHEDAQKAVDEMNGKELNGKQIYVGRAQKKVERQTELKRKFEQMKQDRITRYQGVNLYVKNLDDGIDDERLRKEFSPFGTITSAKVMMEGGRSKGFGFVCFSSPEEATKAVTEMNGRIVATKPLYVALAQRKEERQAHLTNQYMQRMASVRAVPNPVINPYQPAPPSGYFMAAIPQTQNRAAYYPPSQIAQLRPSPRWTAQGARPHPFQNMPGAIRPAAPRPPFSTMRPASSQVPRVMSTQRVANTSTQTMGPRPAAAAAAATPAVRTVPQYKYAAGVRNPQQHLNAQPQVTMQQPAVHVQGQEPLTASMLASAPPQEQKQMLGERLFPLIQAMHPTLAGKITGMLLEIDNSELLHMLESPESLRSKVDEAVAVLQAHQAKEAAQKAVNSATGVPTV
Flag-tagged PKM1 (pyruvate kinase M1) (P14618, form named): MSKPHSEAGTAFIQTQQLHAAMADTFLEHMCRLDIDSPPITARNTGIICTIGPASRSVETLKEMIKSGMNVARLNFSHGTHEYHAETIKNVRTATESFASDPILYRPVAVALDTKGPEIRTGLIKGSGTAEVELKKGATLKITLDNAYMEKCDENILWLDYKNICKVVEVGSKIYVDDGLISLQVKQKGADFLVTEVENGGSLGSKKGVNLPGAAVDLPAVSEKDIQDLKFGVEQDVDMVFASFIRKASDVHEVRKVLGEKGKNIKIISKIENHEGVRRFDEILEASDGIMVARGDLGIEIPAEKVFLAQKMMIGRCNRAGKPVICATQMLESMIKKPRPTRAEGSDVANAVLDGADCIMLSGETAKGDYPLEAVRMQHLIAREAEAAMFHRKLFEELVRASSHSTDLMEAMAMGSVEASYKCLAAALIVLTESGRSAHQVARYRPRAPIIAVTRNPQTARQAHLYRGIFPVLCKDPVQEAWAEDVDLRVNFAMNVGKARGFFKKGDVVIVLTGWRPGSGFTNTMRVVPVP

Experiments:
[1] = target: GST-CARM1 fusion protein (glutathione S-transferase tagged co-activator associated arginine methyltransferase 1) (UniProt Q86X55); test: GST pull-down, anti-GST and anti-Flag Western blot
[2] = target: GST-CARM1 fusion protein (glutathione S-transferase tagged co-activator associated arginine methyltransferase 1) (UniProt Q86X55); test: GST pull-down with purified recombinant proteins, anti-Flag Western blot
[3] = target: GST-CARM1 fusion protein (glutathione S-transferase tagged co-activator associated arginine methyltransferase 1) (UniProt Q86X55); test: GST pull-down

Row | binding [1] | binding [2] | binding [3] | Substance
1 | binds |  |  | Flag-tagged PABP1 (from UniProt P11940 1-636)
2 | binds | binds | binds | Flag-tagged PKM1 (pyruvate kinase M1) (from UniProt P14618 1-531) (enzyme)
